Experimental findings from patent EP4785953A1 are described below.

Protein sequences, listed by entry. Tags and fused reporters are not part of them. Residues count along the entry.
UniProt P08581, residues 25-932: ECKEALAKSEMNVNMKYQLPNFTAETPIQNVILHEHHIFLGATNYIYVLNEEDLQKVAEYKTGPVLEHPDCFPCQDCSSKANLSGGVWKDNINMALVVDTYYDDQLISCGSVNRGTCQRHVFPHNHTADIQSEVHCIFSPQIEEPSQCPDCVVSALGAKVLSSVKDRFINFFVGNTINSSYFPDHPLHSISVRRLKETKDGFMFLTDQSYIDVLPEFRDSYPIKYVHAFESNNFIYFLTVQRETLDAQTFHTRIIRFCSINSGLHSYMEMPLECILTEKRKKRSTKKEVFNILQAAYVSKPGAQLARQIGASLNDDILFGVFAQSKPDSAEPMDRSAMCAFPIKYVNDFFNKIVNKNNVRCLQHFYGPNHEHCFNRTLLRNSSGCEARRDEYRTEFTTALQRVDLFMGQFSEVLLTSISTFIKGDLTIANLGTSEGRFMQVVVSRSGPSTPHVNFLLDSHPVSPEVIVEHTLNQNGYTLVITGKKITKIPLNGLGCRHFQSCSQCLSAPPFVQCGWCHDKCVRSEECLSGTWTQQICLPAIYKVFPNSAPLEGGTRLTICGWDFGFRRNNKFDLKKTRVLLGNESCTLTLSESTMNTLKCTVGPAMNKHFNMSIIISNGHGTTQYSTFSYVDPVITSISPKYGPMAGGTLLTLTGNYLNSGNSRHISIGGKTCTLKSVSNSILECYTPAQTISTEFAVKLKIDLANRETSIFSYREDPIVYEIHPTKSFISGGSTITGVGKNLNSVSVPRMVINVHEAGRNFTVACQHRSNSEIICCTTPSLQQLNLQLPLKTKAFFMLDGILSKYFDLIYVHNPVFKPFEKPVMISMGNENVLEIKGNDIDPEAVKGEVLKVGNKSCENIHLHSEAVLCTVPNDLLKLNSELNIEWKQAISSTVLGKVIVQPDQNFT

The target of this experiment is human c-MET protein (human) (UniProt P08581). As to the kind of experiment: ForteBio BLI affinity measurement. (In BLI a coated tip is dipped into the sample, and binding shifts an interference pattern.)

Results are given in words; binding and its absence hold for the method and conditions named. Some entries that bind do so weakly or less than the wild type.

B1: anti-c-MET antibody-1 (antibody, V domains shown)
VH: EVQLQESGPGLVKPSETLSLTCTVSGGSVTSVNYYWKWIRQPPGKGLEWIGYISYSGNTNYNPSLKSRVTISVDTSKNQFSLKLSSVTAADTAVYYCVRAPYYYMDVWSKGTTVTVSS
VL: DIVMTQSPSSVSASVGDRVTITCRASQGISSWLAWYQQKPGKAPKLLIYAVSSLQSGVPSRFSGSGSGTDFTLTISSLQPEDFATYFCQQANSFPLTFGGGTKVEIK
Turning to B1, the binding result is “binds”.
